These are yes or no findings as the source states them, for the method shown. Binding seen in cells or lysates may run through a third protein. Some entries that bind do so weakly or less than the wild type.
Target: T1, DiGeorge syndrome critical region 8 (DGCR8) (human (endogenous in SCAPs)) (UniProt Q8WYQ5)
T1 sequence: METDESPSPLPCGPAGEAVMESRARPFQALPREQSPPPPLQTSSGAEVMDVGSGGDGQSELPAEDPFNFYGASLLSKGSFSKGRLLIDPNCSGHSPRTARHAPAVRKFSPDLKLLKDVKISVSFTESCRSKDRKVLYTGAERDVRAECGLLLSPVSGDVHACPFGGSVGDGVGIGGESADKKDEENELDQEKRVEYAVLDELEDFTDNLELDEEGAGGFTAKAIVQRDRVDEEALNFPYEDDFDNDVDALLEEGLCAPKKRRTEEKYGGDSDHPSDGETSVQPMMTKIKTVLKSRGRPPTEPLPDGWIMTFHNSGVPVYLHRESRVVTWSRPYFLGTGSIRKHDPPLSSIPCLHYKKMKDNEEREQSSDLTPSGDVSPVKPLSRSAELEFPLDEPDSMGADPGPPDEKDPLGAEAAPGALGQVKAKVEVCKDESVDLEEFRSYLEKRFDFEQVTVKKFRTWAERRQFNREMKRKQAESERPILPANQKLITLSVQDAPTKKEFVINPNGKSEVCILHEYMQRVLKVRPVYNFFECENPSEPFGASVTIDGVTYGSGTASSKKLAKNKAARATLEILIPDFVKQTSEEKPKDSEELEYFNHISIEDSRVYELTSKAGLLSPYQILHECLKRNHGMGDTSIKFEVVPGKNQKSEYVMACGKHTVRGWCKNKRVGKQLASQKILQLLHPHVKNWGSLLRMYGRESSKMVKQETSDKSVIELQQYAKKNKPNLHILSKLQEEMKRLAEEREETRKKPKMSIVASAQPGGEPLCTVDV
Test: co-IP; SCAPs lysed with IP lysis buffer (Invitrogen); antibodies to METTL3 and DGCR8, western blot; with and without RNase (RNase attenuated the coprecipitation)

Chains of the proteins cited; added tags and fusions are not shown.
UniProt Q86U44: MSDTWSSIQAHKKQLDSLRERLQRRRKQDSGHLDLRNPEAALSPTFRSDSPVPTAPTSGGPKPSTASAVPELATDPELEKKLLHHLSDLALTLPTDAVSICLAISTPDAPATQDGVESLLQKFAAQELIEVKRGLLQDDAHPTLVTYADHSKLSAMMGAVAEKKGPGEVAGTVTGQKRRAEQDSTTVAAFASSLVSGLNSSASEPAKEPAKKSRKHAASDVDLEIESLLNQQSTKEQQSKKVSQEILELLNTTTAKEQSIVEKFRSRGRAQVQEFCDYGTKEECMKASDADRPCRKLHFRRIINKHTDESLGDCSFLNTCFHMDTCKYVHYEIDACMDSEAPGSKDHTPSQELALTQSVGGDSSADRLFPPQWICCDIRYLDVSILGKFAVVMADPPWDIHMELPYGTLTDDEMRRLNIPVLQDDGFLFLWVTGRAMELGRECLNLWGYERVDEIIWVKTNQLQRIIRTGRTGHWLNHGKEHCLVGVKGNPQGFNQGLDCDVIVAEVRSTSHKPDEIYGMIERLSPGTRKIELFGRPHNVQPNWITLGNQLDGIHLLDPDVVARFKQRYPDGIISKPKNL

For “Methyltransferase-like 3 (METTL3) (from UniProt Q86U44 1-580)”, which binding is on record?
The binding was “binds”.

From paper PMC10266913
